Measured values: the supplement of paper PMC10849652
This is one part of the list.

By UniProt entry, the sequences of proteins in these tests, tags left out. Where a name states a change or a piece, a line headed by the entry shows the natural chain unless it says otherwise.
UniProt Q6PI48: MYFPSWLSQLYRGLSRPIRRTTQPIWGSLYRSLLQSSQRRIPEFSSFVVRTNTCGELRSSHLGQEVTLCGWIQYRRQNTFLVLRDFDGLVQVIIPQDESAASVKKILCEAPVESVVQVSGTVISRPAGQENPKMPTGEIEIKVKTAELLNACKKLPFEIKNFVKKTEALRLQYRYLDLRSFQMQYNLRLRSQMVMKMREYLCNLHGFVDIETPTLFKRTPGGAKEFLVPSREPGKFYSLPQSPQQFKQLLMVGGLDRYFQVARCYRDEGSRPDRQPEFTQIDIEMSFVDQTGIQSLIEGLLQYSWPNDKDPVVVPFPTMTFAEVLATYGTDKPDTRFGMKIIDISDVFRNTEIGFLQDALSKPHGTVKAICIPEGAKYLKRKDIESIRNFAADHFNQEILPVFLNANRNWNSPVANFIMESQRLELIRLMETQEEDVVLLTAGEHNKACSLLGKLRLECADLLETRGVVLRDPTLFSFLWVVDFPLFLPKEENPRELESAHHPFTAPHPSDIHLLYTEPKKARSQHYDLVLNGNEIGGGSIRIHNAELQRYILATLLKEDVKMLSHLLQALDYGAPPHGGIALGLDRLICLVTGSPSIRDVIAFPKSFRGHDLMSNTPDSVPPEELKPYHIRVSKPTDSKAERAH
UniProt P08574: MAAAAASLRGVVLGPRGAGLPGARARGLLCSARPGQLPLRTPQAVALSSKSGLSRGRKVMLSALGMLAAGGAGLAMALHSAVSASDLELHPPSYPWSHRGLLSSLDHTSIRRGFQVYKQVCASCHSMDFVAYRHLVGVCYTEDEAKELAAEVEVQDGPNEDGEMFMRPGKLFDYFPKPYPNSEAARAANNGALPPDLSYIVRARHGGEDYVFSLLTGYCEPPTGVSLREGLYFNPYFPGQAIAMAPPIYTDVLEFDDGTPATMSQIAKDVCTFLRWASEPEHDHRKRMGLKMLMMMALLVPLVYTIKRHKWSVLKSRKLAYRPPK
UniProt E9PJD7, whole entry, looked up: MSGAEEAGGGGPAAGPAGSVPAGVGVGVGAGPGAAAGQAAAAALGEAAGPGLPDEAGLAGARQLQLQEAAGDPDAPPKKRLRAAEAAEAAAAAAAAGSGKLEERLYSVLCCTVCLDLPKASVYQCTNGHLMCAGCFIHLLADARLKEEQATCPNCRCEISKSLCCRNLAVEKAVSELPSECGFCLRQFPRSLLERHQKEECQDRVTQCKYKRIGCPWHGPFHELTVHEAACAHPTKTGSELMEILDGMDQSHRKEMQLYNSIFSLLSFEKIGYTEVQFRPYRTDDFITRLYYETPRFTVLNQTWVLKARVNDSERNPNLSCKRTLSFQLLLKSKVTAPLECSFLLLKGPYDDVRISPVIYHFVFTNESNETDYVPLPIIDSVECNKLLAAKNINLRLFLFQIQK
UniProt Q5JQC4: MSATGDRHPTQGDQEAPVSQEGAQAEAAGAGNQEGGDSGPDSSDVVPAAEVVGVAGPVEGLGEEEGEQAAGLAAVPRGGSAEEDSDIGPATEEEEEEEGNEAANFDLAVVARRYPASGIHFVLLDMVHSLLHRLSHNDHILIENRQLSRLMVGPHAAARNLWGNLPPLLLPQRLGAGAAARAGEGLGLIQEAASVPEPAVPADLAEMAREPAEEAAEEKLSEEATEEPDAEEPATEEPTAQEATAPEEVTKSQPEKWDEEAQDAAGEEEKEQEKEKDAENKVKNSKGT
UniProt P26232: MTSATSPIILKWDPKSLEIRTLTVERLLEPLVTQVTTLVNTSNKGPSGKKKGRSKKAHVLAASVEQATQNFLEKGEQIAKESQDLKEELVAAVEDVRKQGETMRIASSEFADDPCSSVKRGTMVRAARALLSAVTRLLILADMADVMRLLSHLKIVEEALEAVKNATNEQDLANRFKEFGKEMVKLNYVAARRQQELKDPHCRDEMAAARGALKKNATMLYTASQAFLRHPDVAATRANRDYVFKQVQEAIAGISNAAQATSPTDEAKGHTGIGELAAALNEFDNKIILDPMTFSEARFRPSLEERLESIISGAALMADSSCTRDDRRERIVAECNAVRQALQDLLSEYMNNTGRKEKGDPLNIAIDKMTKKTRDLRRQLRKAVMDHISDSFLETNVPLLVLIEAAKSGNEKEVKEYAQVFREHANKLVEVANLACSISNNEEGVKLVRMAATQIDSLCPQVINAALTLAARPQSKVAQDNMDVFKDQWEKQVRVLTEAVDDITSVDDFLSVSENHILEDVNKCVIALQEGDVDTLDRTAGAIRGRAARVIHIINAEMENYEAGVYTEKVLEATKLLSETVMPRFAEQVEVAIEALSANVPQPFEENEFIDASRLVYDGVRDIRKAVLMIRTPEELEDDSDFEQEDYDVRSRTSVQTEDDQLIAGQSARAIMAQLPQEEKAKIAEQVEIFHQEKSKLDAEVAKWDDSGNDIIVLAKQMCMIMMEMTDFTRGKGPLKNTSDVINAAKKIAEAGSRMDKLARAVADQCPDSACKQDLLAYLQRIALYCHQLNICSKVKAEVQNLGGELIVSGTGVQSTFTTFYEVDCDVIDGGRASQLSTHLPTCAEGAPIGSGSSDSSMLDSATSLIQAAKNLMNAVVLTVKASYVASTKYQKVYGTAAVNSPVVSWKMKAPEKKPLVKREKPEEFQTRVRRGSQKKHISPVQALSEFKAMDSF
UniProt P17812: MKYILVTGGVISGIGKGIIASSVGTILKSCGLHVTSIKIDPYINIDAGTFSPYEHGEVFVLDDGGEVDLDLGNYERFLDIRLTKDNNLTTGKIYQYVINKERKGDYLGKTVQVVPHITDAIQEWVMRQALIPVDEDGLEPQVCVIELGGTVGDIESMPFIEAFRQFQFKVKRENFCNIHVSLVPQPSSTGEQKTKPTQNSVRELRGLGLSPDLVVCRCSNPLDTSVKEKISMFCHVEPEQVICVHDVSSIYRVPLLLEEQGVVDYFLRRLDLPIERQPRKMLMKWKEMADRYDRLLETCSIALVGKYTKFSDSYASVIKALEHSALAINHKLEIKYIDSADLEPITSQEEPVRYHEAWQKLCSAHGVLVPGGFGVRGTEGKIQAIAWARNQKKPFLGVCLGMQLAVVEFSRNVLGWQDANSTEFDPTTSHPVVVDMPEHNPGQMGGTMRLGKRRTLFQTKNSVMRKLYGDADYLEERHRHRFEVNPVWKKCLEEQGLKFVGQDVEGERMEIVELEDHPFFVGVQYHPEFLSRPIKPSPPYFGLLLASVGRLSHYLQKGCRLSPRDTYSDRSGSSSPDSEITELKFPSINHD
UniProt Q9UHQ9: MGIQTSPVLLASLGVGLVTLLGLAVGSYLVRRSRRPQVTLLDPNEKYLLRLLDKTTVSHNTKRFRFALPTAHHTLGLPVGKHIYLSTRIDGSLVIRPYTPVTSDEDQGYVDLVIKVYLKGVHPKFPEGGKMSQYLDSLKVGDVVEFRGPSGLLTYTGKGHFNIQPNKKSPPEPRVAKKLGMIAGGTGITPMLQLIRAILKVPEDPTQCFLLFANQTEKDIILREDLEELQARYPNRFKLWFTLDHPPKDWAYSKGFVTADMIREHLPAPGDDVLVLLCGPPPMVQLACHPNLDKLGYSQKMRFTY
UniProt P99999: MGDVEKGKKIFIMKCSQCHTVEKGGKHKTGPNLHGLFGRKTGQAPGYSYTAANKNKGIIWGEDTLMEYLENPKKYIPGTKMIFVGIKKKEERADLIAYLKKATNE
UniProt Q96F07, whole entry, looked up: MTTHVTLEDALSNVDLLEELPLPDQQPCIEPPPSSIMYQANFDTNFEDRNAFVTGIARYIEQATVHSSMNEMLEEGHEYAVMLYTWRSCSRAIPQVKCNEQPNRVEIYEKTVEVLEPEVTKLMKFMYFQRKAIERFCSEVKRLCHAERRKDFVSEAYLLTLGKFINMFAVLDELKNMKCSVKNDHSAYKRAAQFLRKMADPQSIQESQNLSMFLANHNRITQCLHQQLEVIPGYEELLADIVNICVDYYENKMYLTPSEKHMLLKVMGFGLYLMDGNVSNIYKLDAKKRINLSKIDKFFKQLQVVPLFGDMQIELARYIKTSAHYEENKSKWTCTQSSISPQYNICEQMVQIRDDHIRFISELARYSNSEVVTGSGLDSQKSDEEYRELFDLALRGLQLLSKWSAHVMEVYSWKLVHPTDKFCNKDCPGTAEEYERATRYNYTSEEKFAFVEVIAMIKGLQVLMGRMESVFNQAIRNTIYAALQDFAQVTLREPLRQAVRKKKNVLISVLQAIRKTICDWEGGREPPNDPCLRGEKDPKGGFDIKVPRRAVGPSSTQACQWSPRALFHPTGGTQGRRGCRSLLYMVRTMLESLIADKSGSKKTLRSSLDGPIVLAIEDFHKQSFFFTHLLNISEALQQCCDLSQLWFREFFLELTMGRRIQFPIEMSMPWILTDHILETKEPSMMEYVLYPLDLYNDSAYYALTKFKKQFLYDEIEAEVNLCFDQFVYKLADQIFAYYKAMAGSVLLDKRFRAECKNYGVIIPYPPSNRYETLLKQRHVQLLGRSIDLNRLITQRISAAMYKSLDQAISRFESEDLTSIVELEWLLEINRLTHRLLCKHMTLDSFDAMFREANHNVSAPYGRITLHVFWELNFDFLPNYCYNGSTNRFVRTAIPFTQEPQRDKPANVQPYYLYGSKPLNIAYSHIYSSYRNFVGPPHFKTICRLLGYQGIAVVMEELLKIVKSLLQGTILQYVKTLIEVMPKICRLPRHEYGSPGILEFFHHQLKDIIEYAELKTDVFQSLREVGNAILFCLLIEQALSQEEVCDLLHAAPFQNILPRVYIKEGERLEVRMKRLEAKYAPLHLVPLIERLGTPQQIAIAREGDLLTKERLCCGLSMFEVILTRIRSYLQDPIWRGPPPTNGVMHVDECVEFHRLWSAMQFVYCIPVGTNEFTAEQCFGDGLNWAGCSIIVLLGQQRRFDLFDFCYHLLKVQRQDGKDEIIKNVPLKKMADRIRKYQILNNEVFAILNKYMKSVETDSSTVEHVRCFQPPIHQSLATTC
UniProt Q8WUE5: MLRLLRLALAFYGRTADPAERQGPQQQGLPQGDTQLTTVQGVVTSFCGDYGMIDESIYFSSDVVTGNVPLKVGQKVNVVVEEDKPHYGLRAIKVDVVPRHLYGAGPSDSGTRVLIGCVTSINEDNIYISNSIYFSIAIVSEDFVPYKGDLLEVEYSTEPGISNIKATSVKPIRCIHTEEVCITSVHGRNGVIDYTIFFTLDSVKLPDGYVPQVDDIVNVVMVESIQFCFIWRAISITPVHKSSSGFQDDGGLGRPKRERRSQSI
UniProt O00399, whole entry, looked up: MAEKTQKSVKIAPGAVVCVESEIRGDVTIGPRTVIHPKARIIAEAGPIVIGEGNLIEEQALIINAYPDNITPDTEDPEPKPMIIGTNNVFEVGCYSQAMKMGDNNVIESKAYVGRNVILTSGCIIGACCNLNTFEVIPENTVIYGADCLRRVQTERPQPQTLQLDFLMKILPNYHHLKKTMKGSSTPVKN
UniProt Q8WVC6: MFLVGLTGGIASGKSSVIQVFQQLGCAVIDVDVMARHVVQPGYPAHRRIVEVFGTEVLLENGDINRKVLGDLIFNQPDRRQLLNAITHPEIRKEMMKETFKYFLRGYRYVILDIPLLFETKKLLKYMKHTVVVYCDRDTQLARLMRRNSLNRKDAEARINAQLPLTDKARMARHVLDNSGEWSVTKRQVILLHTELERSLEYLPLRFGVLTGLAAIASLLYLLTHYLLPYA
UniProt P00387: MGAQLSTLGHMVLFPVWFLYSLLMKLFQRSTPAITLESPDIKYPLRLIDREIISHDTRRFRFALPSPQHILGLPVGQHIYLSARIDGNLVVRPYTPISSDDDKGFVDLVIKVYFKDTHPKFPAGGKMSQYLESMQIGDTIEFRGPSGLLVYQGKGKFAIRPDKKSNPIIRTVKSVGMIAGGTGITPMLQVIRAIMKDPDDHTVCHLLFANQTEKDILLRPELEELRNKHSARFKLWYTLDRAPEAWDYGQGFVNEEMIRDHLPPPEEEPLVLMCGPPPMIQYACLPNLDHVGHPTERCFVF
UniProt Q6UW02: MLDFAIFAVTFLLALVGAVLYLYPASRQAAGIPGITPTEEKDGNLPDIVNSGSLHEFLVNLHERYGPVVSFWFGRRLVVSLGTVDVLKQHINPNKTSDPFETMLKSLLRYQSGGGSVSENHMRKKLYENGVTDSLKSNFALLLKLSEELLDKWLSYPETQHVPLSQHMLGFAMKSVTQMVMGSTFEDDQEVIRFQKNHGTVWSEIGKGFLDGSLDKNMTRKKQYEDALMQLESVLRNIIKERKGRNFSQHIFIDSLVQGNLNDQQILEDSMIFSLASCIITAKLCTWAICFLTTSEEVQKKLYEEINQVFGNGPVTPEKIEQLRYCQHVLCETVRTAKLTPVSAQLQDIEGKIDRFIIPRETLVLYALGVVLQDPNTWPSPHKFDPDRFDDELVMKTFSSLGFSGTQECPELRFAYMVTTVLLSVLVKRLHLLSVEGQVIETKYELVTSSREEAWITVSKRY

Assays:
Assay in all cases: log2 fold change, soluble protein after heating vs DMSO (PISA); higher = thermal stabilisation; K562 cells, 10 uM, 30 min; active = over 0.2 and 3.5 SD of the protein, either way, in both replicates (recomputed)
[1] = compound: CS(=O)(=O)c1ccc(-c2cnc(N)c(C(=O)Nc3ccccc3)n2)cc1
Procedure, shortened: (§1)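 Soluble protein was quantified by TMTpro 16plex LC-MS/MS after channel sums were equalised. It was obtained as the supernatant after 21,000xg for 90 min from pooled aliquots of K562 cells (2×10^6 cells/mL, 10 μM compound, 30 min) heated for 3 min across 48°C-58°C and extracted in PBS with 0.5% NP-40 at 4°C. Thermal stability values are relative to control samples and come from duplicates. They are given as log2 fold changes.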

crizotinib = compound: C[C@@H](Oc1cc(-c2cnn(C3CCNCC3)c2)cnc1N)c1c(Cl)ccc(F)c1Cl [crizotinib]
Procedure, shortened: as §1

[2] = compound: C[C@@H]1COCCN1C2=NC(=NC(=C2)C3(CC3)S(=O)(=O)C)C4=C5C=CNC5=CC=C4
Procedure, shortened: as §1

[3] = compound: C[C@H](C1=CC=C(C=C1)C(=O)NC2=C3C=CNC3=NC=C2)N
Procedure, shortened: as §1

duvelisib = compound: C[C@H](Nc1ncnc2nc[nH]c12)c1cc2cccc(Cl)c2c(=O)n1-c1ccccc1 [duvelisib]
Procedure, shortened: as §1

gandotinib = compound: Cc1cc(Nc2cc(CN3CCOCC3)c3nc(C)c(Cc4ccc(Cl)cc4F)n3n2)n[nH]1 [gandotinib]
Procedure, shortened: as §1

tozasertib = compound: Cc1cc(Nc2cc(N3CCN(C)CC3)nc(Sc3ccc(NC(=O)C4CC4)cc3)n2)n[nH]1 [tozasertib]
Procedure, shortened: as §1

[4] = compound: Cc1cc(SCc2sc(-c3ccc(C(F)(F)F)cc3)nc2C)ccc1OCC(=O)O
Procedure, shortened: as §1

doramapimod = compound: Cc1ccc(-n2nc(C(C)(C)C)cc2NC(=O)Nc2ccc(OCCN3CCOCC3)c3ccccc23)cc1 [doramapimod]
Procedure, shortened: as §1

ispinesib = compound: Cc1ccc(C(=O)N(CCCN)[C@@H](c2nc3cc(Cl)ccc3c(=O)n2Cc2ccccc2)C(C)C)cc1 [ispinesib]
Procedure, shortened: as §1

Measured: log2 fold change

DCAF8 (UniProt Q5TAQ9)
inactive: [1] 0.055 | crizotinib 0.077 | [2] 0.056 | [3] -0.198 | duvelisib 0.04 | gandotinib -0.036 | tozasertib 0.054 | [4] -0.021 | doramapimod 0.002 | ispinesib 0.069

DARS2 (UniProt Q6PI48)
inactive: [1] -0.019 | crizotinib 0.049 | [2] -0.033 | [3] -0.005 | duvelisib -0.007 | gandotinib -0.024 | tozasertib -0.003 | [4] -0.007 | doramapimod -0.025 | ispinesib 0.014

CXorf56 (UniProt Q9H5V9)
inactive: [1] 0 | crizotinib 0.051 | [2] -0.022 | [3] -0.041 | duvelisib 0.034 | gandotinib 0.008 | tozasertib 0.001 | [4] -0.001 | doramapimod 0.004 | ispinesib 0.015

CTNND1 (UniProt O60716)
inactive: [1] -0.005 | crizotinib -0.078 | [2] -0.295 | [3] 0.432 | duvelisib -0.06 | gandotinib 0.099 | tozasertib 0.039 | [4] 0.044 | doramapimod 0.084 | ispinesib -0.297

CWC15 (UniProt Q9P013)
inactive: [1] -0.001 | crizotinib 0.094 | [2] 0.045 | [3] 0.007 | duvelisib 0.004 | gandotinib 0.022 | tozasertib -0.089 | [4] -0.085 | doramapimod 0.01 | ispinesib -0.023

Random excerpt: two records from the list.
CXorf56 (UniProt Q9H5V9)
inactive: [1] 0 | crizotinib 0.051 | [2] -0.022 | [3] -0.041 | duvelisib 0.034 | gandotinib 0.008 | tozasertib 0.001 | [4] -0.001 | doramapimod 0.004 | ispinesib 0.015

DCAF8 (UniProt Q5TAQ9)
inactive: [1] 0.055 | crizotinib 0.077 | [2] 0.056 | [3] -0.198 | duvelisib 0.04 | gandotinib -0.036 | tozasertib 0.054 | [4] -0.021 | doramapimod 0.002 | ispinesib 0.069

The list continues.

CYC1 (UniProt P08574)
inactive: [1] -0.008 | crizotinib 0.054 | [2] 0.048 | [3] -0.058 | duvelisib -0.034 | gandotinib -0.049 | tozasertib 0.002 | [4] 0.021 | doramapimod -0.114 | ispinesib 0.015

DCAF7 (UniProt P61962)
inactive: [1] -0.038 | crizotinib 0.017 | [2] 0.038 | [3] 0.112 | duvelisib 0.028 | gandotinib -0.01 | tozasertib -0.061 | [4] 0.041 | doramapimod -0.011 | ispinesib 0.006

CYHR1 (UniProt E9PJD7)
inactive: [1] 0.035 | crizotinib 0.001 | [2] 0.111 | [3] -0.015 | duvelisib -0.076 | gandotinib -0.064 | tozasertib -0.007 | [4] -0.056 | doramapimod -0.045 | ispinesib 0.052

CT47A1 (UniProt Q5JQC4)
inactive: [1] 0.098 | crizotinib -0.136 | [2] -0.104 | [3] 0.069 | duvelisib 0.067 | gandotinib 0.015 | tozasertib -0.097 | [4] 0.006 | doramapimod 0.061 | ispinesib 0.181

CTNNA2 (UniProt P26232)
inactive: [1] -0.016 | crizotinib -0.03 | [2] -0.003 | [3] -0.055 | duvelisib 0.076 | gandotinib -0.04 | tozasertib -0.005 | [4] 0.028 | doramapimod 0.056 | ispinesib 0.029

CTPS1 isoform 2 (UniProt P17812)
inactive: [1] -0.368

CT45A10 (UniProt P0DMU9)
inactive: [1] -0.06 | crizotinib 0.038 | [2] -0.348 | [3] 0 | duvelisib -0.175 | gandotinib 0.154 | tozasertib -0.042 | [4] 0.166 | doramapimod 0.17 | ispinesib -0.078

DCPS (UniProt Q96C86)
inactive: [1] 0.019 | crizotinib 0.058 | [2] -0.029 | [3] -0.014 | duvelisib 0 | gandotinib 0.012 | tozasertib -0.014 | [4] -0.017 | doramapimod -0.009 | ispinesib -0.002

CUTC (UniProt Q9NTM9)
inactive: [1] 0.036 | crizotinib -0.005 | [2] 0.011 | [3] -0.003 | duvelisib 0.022 | gandotinib -0.053 | tozasertib -0.024 | [4] -0.018 | doramapimod -0.032 | ispinesib 0.065

CZIB (UniProt Q9NWV4)
inactive: [1] 0.025 | crizotinib 0.046 | [2] 0.046 | [3] -0.117 | duvelisib 0.021 | gandotinib -0.044 | tozasertib 0.025 | [4] -0.007 | doramapimod -0.032 | ispinesib 0.089

CUL3 (UniProt Q13618)
inactive: [1] 0.016 | crizotinib 0.008 | [2] 0.062 | [3] -0.07 | duvelisib 0.013 | gandotinib -0.03 | tozasertib -0.021 | [4] 0.002 | doramapimod -0.014 | ispinesib 0.06

CTIF isoform 2 (UniProt O43310)
inactive: [1] 0.003 | crizotinib -0.076 | [2] -0.049 | [3] -0.067 | duvelisib 0.062 | gandotinib 0.018 | tozasertib 0.013 | [4] -0.046 | doramapimod 0.06 | ispinesib 0.097

CYB5R1 (UniProt Q9UHQ9)
inactive: [1] 0.032 | crizotinib 0.043 | [2] 0.042 | [3] -0.012 | duvelisib 0.025 | gandotinib -0.043 | tozasertib -0.004 | [4] -0.013 | doramapimod -0.066 | ispinesib -0.014

CTBP1 (UniProt Q13363)
inactive: [1] 0.005 | crizotinib 0.067 | [2] 0.058 | [3] -0.073 | duvelisib 0.002 | gandotinib -0.077 | tozasertib -0.028 | [4] -0.017 | doramapimod -0.025 | ispinesib 0.048

CSPP1 (UniProt Q1MSJ5)
inactive: [1] 0.027 | crizotinib -0.053 | [2] -0.021 | [3] 0.102 | duvelisib -0.047 | gandotinib -0.027 | tozasertib -0.06 | [4] -0.116 | doramapimod 0.068 | ispinesib -0.101

CYCS (UniProt P99999)
inactive: [1] -0.025 | crizotinib 0.089 | [2] 0.03 | [3] -0.043 | duvelisib -0.011 | gandotinib 0.036 | tozasertib -0.014 | [4] -0.095 | doramapimod -0.013 | ispinesib 0.006

CYB5B, A0A499FJ32
inactive: [1] -0.02 | crizotinib 0.086 | [2] 0.476 | [3] 0.138 | duvelisib 0.104 | gandotinib -0.061 | tozasertib 0.009 | [4] -0.068 | doramapimod 0.026 | ispinesib 0.07

CYFIP2 (UniProt Q96F07)
inactive: [1] 0.013 | crizotinib -0.065 | [2] 0.049 | [3] -0.063 | duvelisib 0.035 | gandotinib -0.052 | tozasertib 0.012 | [4] 0.032 | doramapimod 0.028 | ispinesib -0.02

CT55 (UniProt Q8WUE5)
inactive: [1] 0.022 | crizotinib -0.025 | [2] 0 | [3] -0.048 | duvelisib 0.045 | gandotinib -0.169 | tozasertib -0.019 | [4] -0.01 | doramapimod 0.037

DCTN2 isoform 2 (UniProt Q13561)
inactive: [1] -0.001 | crizotinib 0.037 | [2] 0.008 | [3] -0.021 | duvelisib -0.017 | gandotinib -0.055 | tozasertib 0.077 | [4] 0.05 | doramapimod -0.019 | ispinesib 0.006

DCTN6 (UniProt O00399)
inactive: [1] 0.024 | crizotinib 0.067 | [2] -0.029 | [3] -0.029 | duvelisib -0.046 | gandotinib 0.012 | tozasertib -0.032 | [4] -0.006 | doramapimod -0.02 | ispinesib 0.188

DCAKD (UniProt Q8WVC6)
inactive: [1] 0.055 | crizotinib -0.063 | [2] 0.004 | [3] 0.005 | duvelisib 0.138 | gandotinib -0.011 | tozasertib -0.038 | [4] 0.091 | doramapimod 0.046 | ispinesib -0.256

CUL2 isoform 2 (UniProt Q13617)
inactive: [1] -0.006 | crizotinib -0.002 | [2] 0.057 | [3] -0.056 | duvelisib 0.015 | gandotinib -0.049 | tozasertib 0.005 | [4] 0.026 | doramapimod -0.03 | ispinesib 0.064

CWF19L1 (UniProt Q69YN2)
inactive: [1] -0.03 | crizotinib 0.062 | [2] 0.078 | [3] -0.003 | duvelisib 0.033 | gandotinib 0.049 | tozasertib -0.001 | [4] -0.001 | doramapimod 0 | ispinesib 0.063

CYB5R3 isoform 3 (UniProt P00387)
inactive: [1] 0.032 | crizotinib 0.031 | [2] 0.017 | [3] -0.07 | duvelisib 0.055 | gandotinib -0.012 | tozasertib -0.023 | [4] -0.004 | doramapimod -0.059 | ispinesib 0.079

CYP20A1 (UniProt Q6UW02)
inactive: [1] -0.038 | crizotinib -0.041 | [2] 0.077 | [3] -0.038 | duvelisib 0.045 | gandotinib -0.189 | tozasertib 0 | [4] 0.009 | doramapimod -0.004 | ispinesib 0.022
